In article PMC11479228:
No constants are given. Whether binding was seen depends on the method and setting. In cells and extracts the contact can be indirect. A yes stands for co-enrichment or nearness to the bait. Other partners may have been found.

B1: photosytem I subunit VII (chloroplast) (protein, UniProt G8IZ81 1-81)
chain: MAHSVKIYDTCIGCTQCVRACPTDVLEMIPWEGCKAKQIASAPRTEDCVGCKRCESACPTDFLSVRVYLWHETTRSMGLAY
B2: ATP synthase CF1 epsilon subunit (chloroplast) [Pinus massoniana] (protein, UniProt G8IZ49 1-137)
chain: MTLNLRVLSPNRVIWDSEVKEIILSTNSGQIGVLPNHASLVAAVDIGVMKIRLNGQWSTMAMMGGFAKIDSDRITILVNNAERDVDIDPQEAQENFRIAKADLARAEGKRQAIEADLALKRARTRLEAINASPPVSN
B3: ribosomal protein L2 (chloroplast) [Pinus massoniana] (protein, UniProt G8IZ67 1-276)
chain: MAIRSYRILTPDTRNRSVSGFDGRVQLDPQKKLTSGQHHCGKGRNGRGIITARHRGGGHKRLYRQIDFRRNKEHISGEIVTIEYDPNRSAYICKVHYKNGDKMYILHPRGVMIGDTILSGPKAPISIGNALPLTNMPLGTAIHNIEITLGKGGQLARAAGAVAELIAKEDRSATLRLPSGEVRLISENCSATIGQVGNITANNRSFGKAGAKRWLGKRSEVRGVAMNPVDHPHGGGEGRTPIGRKKPVTPWGYSALGKKSRKRNRYSDASILRRRE
B4: cytochrome b6 (chloroplast) [Pinus massoniana] (protein, UniProt G8IZ55 1-215)
chain: MGKVYDRFEERLEIQAIADDITSKYVPPHVNIFYCLGGITLTCFLVQVATGFAMTFYYRPTVTEAFASVQYLMTEVNFGWLIRSIHRWSASMMVLMMILHVFRVYLTGGFKKPRELTWVTGVILAVLTVSFGVTGYSLPWDQIGYWAVKIVTGVPEAIPVIGSPLVELLRGSVSVGQSTLTRFYSLHTFILPLLTAVFMPMHFLMIRKQGIPGPL
B5: ribosomal protein S11 (chloroplast) [Pinus massoniana] (protein, UniProt G8IZ58 1-130)
chain: MSKTIKRIGSRRNEHRVLKGVIYVQASFNNTIVTATDVRGQVISWSSAGACGFKGTRRGTPFAAQTAAENVIRALMDRGMERVEVMISGPGRGRDTALRTIRRSGILLSFVRDVTPMPHNGCRPPKKRRV
B6: hypothetical chloroplast RF68 (chloroplast) [Pinus massoniana] (protein, UniProt R4L001 1-75)
chain: MAYSSCLFEPGFGTELILRRIDGAIQVRSNTDPTFYSFVDLGGPGVPVVIHLGSSLLENPYIPYQCMDGYLSGTG
B7: ATP synthase CF1 beta subunit (protein, UniProt G8IZ48 1-492)
chain: MRKNPLVLGVSARVEKNVGRIAQIIGPVLDVSFPPGNMPNIYNSLIVKGQGTAGQEIQVTCEVQQLLGNHKVRAVAMSATDGLTRGMRVIDTGAPLSVPVGGATLGRIFNVLGEPVDNLGPVDARITSPIHRPAPAFTELDTKLSIFETGIKVVDLLAPYRRGGKIGLFGGAGVGKTVLIMELINNIAKAHGGVSVFGGVGERTREGNDLYMEMKESGVIDEQKISESKVALVYGQMNEPPGARMRVGLTALTMAEYFRDVNEQDVLLFIDNIFRFVQAGSEVSALLGRMPSAVGYQPTLSTEMGSLQERITSTKKGSITSIQAVYVPADDLTDPAPATTFAHSDATTVLSRGLAAKGIYPAVDPLDSTSTMLQPWIVGEEHYETAQGVKQTLQRYKELQDIIAIPGLDELSEEDRLIVARARKIERFLSQPFFVAEVFTGSPGKYVGLMETIRGFQMILSGELDGLIEQSFYLVGNIDEATAKAINSNMES

target: PmACRE1 protein (Avr9/Cf-9 rapidly elicited 1) of Pinus massoniana (Pinus massoniana (endogenous in needles)); experiment: affinity purification with mass spectrometry; co-IP: specific anti-PmACRE1 antibody on Protein A/G magnetic beads, incubated overnight at 4 °C with natural soluble proteins of P. massoniana needles collected 3 and 5 days after pine wood nematode infection; eluate on SDS-PAGE, bands digested, HPLC-MS/MS

binding, binds:
B1
B2
B3
B4
B5
B6
B7
